Assay [1] deals with T1, CCT2 (subunit of TRiC), A549 cells (human (endogenous in A549)) (UniProt P78371).
T1 sequence: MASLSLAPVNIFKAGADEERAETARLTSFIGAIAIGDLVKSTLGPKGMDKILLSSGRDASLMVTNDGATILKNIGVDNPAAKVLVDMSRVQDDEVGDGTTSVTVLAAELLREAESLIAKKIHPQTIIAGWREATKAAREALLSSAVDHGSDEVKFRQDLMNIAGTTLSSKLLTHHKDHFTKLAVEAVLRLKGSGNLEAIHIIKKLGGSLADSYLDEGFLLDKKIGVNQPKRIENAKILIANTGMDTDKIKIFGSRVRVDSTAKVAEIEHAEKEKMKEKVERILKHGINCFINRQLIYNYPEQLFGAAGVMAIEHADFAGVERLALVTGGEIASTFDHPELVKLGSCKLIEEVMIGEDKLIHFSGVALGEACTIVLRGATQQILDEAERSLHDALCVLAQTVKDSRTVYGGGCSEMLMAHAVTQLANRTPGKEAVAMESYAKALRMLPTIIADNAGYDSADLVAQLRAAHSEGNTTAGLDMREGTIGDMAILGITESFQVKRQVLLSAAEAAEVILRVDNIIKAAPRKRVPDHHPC
Kind of assay: co-IP; A549 cell lysates, immunoprecipitated with CCT2 antibody, Western blot; cells ARV-infected (MOI 10, 24 h), with or without CK2 or Hsc70 shRNA (Fig. 9A). On the technique in general: In western blotting, separated proteins are transferred to a membrane and probed.

Amino acid sequences for entries named in this document (tags omitted).
UniProt P11142: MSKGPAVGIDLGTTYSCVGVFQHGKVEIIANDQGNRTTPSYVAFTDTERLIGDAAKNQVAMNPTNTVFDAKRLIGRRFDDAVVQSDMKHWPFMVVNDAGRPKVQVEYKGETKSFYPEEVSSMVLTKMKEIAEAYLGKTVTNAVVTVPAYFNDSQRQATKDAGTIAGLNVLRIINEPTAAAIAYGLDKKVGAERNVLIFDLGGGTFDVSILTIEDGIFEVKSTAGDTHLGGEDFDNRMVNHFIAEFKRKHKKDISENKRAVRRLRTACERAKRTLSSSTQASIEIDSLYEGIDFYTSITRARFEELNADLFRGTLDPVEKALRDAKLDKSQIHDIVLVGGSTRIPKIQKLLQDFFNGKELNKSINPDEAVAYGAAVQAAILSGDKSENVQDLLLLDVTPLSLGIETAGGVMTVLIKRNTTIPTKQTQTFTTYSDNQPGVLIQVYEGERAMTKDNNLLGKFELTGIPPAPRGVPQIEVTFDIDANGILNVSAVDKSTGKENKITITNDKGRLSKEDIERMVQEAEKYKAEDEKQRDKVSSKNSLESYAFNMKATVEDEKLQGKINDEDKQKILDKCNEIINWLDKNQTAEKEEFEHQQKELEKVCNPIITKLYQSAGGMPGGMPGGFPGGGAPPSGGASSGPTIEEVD
UniProt P25963: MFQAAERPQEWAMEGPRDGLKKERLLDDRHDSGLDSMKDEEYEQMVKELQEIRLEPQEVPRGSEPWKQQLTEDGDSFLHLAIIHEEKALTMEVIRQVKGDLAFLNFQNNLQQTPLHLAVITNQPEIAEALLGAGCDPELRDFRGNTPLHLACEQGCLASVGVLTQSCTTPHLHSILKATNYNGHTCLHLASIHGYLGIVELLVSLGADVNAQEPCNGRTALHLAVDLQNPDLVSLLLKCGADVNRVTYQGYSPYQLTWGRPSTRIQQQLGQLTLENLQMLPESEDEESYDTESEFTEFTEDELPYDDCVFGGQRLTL

For assay [2], the target named is Hsc70, A549 cells (human (endogenous in A549)) (UniProt P11142). Kind of assay: co-IP; A549 cell lysates, immunoprecipitated with Hsc70 antibody, Western blot; cells ARV-infected (MOI 10, 24 h) (Fig. 9B).

These are yes or no findings as the source states them, for the method shown. Binding seen in cells or lysates may run through a third protein. Some results given as binding are weak or reduced against the parent protein; the word gives no strength.

Turning to “IκBα, A549 cells (from UniProt P25963 1-317)”, the binding entry in assay [1] and in assay [2] was “binds” each time.

These data come from publication PMC12724251.
